# Assay results published in patent US7384965B2, “Fused heterocyclic derivatives as PPAR modulators” (Eli Lilly and Company, priority 2003, dated 2008).
# At least one compound was matched to its structure with a doubt left.
# System: total cholesterol and triglyceride levels
# Experiment: LDL-cholesterol, total-cholesterol and triglyceride lowering effect in hypercholesterolemic hamsters
# Type: in vivo, Male Syrian hamsters
# Conditions: hamsters on high-fat cholesterol-rich diet, 200 mg/kg daily for 14 days, compared to the vehicle
compound,measurement,value
CC(C)OC(=O)C(C)(C)Oc1ccc(C(=O)c2ccc(Cl)cc2)cc1 [fenofibrate],reduction in total cholesterol and triglyceride levels,did not show significant efficacy
